In the supplement of paper PMC10849652:
The other results are listed elsewhere or left out.

The chains behind the UniProt entries cited, without tags or fusion partners. Where a name states a change or a piece, a line headed by the entry shows the natural chain unless it says otherwise.
UniProt Q86WH2: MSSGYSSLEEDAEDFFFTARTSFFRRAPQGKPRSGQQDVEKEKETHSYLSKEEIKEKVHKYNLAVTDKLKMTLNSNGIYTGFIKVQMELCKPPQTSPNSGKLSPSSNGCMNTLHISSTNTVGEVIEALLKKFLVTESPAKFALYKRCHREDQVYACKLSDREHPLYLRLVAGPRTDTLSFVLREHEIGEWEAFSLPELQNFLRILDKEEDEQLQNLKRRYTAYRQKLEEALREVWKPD
UniProt O75884: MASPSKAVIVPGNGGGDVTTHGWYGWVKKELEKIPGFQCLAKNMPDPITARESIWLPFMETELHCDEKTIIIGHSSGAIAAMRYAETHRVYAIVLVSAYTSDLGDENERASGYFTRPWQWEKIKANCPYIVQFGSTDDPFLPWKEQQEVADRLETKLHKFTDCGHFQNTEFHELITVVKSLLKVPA
UniProt Q6NTF9: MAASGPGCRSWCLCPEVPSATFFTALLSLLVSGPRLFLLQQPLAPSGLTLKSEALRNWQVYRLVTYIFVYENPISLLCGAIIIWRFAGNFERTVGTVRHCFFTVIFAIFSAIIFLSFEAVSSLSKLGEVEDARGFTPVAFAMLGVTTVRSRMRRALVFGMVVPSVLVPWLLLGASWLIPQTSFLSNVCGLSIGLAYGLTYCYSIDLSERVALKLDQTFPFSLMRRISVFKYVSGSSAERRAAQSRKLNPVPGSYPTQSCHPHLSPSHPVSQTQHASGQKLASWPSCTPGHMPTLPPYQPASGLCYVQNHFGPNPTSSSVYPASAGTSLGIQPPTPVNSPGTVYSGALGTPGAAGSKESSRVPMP
UniProt Q9Y3P4: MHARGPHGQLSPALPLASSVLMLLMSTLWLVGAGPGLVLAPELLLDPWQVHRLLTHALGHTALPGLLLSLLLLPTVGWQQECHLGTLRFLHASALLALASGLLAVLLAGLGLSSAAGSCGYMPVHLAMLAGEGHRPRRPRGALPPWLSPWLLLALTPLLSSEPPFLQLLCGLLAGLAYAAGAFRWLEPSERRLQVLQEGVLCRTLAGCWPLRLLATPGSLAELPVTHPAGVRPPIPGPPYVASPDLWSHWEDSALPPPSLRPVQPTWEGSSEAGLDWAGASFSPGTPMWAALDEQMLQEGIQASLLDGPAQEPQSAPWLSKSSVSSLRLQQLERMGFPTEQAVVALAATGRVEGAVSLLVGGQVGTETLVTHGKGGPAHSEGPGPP
UniProt Q9Y644: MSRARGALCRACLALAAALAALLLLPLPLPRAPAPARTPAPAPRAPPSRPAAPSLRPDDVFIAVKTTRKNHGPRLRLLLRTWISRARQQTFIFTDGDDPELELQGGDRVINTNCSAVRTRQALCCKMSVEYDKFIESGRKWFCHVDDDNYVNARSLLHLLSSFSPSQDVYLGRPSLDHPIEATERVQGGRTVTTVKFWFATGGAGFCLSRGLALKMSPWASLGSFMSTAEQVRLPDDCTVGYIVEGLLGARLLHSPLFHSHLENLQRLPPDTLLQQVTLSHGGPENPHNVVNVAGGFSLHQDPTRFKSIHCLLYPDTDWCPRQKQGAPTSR
UniProt Q15291, whole entry, looked up: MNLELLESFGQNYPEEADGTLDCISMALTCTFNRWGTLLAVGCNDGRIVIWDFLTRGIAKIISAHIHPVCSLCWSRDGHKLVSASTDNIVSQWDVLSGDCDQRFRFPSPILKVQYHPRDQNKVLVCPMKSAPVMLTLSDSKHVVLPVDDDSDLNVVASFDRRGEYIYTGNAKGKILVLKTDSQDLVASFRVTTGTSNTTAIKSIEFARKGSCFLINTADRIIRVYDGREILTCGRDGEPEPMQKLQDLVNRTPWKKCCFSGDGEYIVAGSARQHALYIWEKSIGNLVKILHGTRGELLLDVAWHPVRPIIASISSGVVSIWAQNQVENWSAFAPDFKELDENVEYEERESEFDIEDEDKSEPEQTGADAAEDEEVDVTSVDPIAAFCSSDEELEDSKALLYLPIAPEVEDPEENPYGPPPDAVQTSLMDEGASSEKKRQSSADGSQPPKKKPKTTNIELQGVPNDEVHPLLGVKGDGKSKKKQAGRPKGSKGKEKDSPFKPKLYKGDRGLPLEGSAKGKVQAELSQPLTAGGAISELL
UniProt Q8IXT5: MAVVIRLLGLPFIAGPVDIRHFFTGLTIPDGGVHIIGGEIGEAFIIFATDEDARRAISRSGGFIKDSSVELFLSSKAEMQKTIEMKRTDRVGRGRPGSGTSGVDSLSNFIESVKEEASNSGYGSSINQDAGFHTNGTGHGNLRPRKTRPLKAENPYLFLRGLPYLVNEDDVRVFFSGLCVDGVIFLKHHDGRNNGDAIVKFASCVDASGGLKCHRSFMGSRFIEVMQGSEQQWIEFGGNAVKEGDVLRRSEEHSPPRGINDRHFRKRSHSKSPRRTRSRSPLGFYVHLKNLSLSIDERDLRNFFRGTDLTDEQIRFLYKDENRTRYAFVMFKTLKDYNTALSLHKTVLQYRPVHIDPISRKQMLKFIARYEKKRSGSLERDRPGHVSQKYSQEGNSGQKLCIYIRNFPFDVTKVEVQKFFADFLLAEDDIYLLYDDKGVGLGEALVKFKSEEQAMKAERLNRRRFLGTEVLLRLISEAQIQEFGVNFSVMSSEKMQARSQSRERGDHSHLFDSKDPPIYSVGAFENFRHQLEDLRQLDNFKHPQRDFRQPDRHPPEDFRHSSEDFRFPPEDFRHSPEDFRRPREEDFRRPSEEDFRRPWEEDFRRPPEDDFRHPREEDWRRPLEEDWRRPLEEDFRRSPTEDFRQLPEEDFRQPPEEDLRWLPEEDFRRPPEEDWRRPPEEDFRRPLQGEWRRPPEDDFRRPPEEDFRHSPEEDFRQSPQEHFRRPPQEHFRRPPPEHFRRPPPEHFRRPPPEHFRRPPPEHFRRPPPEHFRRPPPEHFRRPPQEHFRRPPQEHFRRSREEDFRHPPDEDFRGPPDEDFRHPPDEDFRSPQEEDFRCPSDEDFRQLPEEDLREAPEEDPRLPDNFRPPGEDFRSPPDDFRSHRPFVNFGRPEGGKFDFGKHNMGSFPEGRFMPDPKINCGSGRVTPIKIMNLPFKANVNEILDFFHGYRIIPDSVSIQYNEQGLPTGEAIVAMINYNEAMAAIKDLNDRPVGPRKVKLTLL
UniProt Q5T481: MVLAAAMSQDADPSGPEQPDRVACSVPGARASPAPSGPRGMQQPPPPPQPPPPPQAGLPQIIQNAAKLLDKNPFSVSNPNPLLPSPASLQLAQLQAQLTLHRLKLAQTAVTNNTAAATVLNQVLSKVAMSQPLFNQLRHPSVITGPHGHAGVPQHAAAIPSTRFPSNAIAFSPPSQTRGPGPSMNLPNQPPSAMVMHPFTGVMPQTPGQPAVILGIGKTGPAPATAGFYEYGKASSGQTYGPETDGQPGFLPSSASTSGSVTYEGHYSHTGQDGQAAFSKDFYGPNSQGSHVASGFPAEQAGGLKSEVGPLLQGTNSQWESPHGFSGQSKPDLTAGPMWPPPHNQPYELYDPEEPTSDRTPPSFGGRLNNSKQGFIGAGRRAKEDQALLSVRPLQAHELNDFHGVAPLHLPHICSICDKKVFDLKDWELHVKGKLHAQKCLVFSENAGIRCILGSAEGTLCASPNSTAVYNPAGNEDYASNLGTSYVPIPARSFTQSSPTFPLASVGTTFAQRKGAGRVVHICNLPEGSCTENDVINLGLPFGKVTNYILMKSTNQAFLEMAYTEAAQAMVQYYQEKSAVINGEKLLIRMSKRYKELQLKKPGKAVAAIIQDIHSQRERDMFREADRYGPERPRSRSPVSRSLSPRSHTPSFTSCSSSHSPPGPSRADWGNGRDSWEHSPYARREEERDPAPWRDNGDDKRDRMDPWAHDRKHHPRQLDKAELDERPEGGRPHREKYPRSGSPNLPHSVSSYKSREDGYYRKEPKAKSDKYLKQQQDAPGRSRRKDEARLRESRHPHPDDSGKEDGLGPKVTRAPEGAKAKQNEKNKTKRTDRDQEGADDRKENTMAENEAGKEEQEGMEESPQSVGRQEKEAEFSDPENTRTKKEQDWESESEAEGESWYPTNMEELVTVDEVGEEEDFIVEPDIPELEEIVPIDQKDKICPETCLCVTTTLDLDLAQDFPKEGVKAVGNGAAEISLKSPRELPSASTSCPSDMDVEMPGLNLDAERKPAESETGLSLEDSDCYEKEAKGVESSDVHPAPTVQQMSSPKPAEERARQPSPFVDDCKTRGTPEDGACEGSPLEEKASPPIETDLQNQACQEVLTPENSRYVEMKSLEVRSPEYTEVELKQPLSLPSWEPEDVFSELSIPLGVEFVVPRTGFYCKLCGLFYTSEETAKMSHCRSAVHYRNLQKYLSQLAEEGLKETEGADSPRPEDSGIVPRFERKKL
UniProt P62877, whole entry, looked up: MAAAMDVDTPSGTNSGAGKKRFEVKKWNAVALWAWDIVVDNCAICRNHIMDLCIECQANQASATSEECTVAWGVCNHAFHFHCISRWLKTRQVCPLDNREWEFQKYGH
UniProt Q8IZ40: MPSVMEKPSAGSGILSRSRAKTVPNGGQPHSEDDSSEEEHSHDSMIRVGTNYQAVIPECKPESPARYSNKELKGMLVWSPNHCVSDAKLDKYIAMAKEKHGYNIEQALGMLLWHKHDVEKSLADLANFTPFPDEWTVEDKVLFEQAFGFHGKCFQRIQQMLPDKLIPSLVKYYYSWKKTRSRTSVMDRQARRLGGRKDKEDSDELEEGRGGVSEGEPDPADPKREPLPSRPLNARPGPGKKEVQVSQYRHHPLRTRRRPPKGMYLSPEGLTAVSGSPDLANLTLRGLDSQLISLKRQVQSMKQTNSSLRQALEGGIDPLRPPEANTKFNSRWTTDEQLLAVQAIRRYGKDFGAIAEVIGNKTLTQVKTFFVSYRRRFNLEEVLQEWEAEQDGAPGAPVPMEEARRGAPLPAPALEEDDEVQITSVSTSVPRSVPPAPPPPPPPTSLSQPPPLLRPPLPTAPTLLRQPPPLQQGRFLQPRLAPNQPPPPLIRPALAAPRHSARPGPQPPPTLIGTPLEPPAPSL

Experiments:
Test in all cases: log2 fold change, soluble protein after heating vs DMSO (PISA); higher = thermal stabilisation; K562 lysate, 10 uM; active = over 0.2 and 3.5 SD of the protein, either way, in both replicates (recomputed)
alvocidib = compound: CN1CC[C@H](c2c(O)cc(O)c3c(=O)cc(-c4ccccc4Cl)oc23)[C@H](O)C1 [alvocidib]
Procedure, shortened: (§1)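 A 30 min treatment with 10 μM compound was applied to crude K562 extract at 1 mg/mL protein in PBS pH 7.4 with 1 mM MgCl2. Heating for 3 min spanned 48°C-58°C, after which aliquots were pooled, adjusted to 0.5% NP-40 at 4°C and spun at 21,000xg for 90 min. TMTpro 16plex LC-MS/MS of the supernatant, with channel sums equalised, gave values recorded as log-two fold change in thermal stability against solvent controls, from duplicates.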

[1] = compound: COc1cc2nc(-c3cc(F)ccc3O)nc(N[C@@H]3CNC[C@H]3C(C)(C)O)c2cc1OC
Procedure, shortened: as §1

lapatinib = compound: CS(=O)(=O)CCNCc1ccc(-c2ccc3ncnc(Nc4ccc(OCc5cccc(F)c5)c(Cl)c4)c3c2)o1 [lapatinib]
Procedure, shortened: as §1

crizotinib = compound: C[C@@H](Oc1cc(-c2cnn(C3CCNCC3)c2)cnc1N)c1c(Cl)ccc(F)c1Cl [crizotinib]
Procedure, shortened: as §1

[2] = compound: C[C@H](C1=CC=C(C=C1)C(=O)NC2=C3C=CNC3=NC=C2)N
Procedure, shortened: as §1

gandotinib = compound: Cc1cc(Nc2cc(CN3CCOCC3)c3nc(C)c(Cc4ccc(Cl)cc4F)n3n2)n[nH]1 [gandotinib]
Procedure, shortened: as §1

doramapimod = compound: Cc1ccc(-n2nc(C(C)(C)C)cc2NC(=O)Nc2ccc(OCCN3CCOCC3)c3ccccc23)cc1 [doramapimod]
Procedure, shortened: as §1

[3] = compound: Cc1cccc(CC(=O)N2CCc3c2ccc(-c2cn(C)c4ncnc(N)c24)c3F)n1
Procedure, shortened: as §1

Tubastatin A = compound: CN1CCc2c(c3ccccc3n2Cc2ccc(C(=O)NO)cc2)C1 [Tubastatin A]
Procedure, shortened: as §1

[4] = compound: CNC(=O)C1=CC=CC=C1NC2=NC(=NC=C2Cl)NC3=C(C=C(C=C3)N4CCOCC4)OC
Procedure, shortened: as §1

defactinib = compound: CNC(=O)c1ccc(Nc2ncc(C(F)(F)F)c(NCc3nccnc3N(C)S(C)(=O)=O)n2)cc1 [defactinib]
Procedure, shortened: as §1

pictilisib = compound: CS(=O)(=O)N1CCN(Cc2cc3nc(-c4cccc5[nH]ncc45)nc(N4CCOCC4)c3s2)CC1 [pictilisib]
Procedure, shortened: as §1

bafetinib = compound: Cc1ccc(NC(=O)c2ccc(CN3CC[C@H](N(C)C)C3)c(C(F)(F)F)c2)cc1Nc1nccc(-c2cncnc2)n1 [bafetinib]
Procedure, shortened: as §1

alisertib = compound: COc1cc(Nc2ncc3c(n2)-c2ccc(Cl)cc2C(c2c(F)cccc2OC)=NC3)ccc1C(=O)O [alisertib]
Procedure, shortened: as §1

gefitinib = compound: COc1cc2ncnc(Nc3ccc(F)c(Cl)c3)c2cc1OCCCN1CCOCC1 [gefitinib]
Procedure, shortened: as §1

[5] = compound: CNc1nc(-c2ccc3c(N)n[nH]c3c2)cc(N2C[C@@H](C(=O)NC3CCCCC3)CC[C@H]2C)n1
Procedure, shortened: as §1

encorafenib = compound: COC(=O)N[C@@H](C)CNc1nccc(-c2cn(C(C)C)nc2-c2cc(Cl)cc(NS(C)(=O)=O)c2F)n1 [encorafenib]
Procedure, shortened: as §1

[6] = compound: COC(=O)[C@H](CCSC)NC(=O)C1=C(C=C(C=C1)NC[C@H](CS)N)C2=CC=CC=C2
Procedure, shortened: as §1

duvelisib = compound: C[C@H](Nc1ncnc2nc[nH]c12)c1cc2cccc(Cl)c2c(=O)n1-c1ccccc1 [duvelisib]
Procedure, shortened: as §1

tozasertib = compound: Cc1cc(Nc2cc(N3CCN(C)CC3)nc(Sc3ccc(NC(=O)C4CC4)cc3)n2)n[nH]1 [tozasertib]
Procedure, shortened: as §1

Measured: log2 fold change

RASSF3 (UniProt Q86WH2)
inactive: alvocidib 0.024 | [1] 0.094 | lapatinib 0.05 | crizotinib 0.043 | [2] 0.042 | gandotinib 0.085 | doramapimod -0.005 | [3] 0.141

RBBP9 (UniProt O75884)
inactive: Tubastatin A 0.045 | [4] -0.083 | defactinib 0.016 | pictilisib -0.04 | crizotinib -0.068 | doramapimod -0.024 | bafetinib -0.019

RHBDD2 isoform 2 (UniProt Q6NTF9)
inactive: Tubastatin A 0.276 | [4] 0.058

RHBDD3 (UniProt Q9Y3P4)
inactive: crizotinib 0.144 | doramapimod -0.18

RFNG (UniProt Q9Y644)
inactive: alisertib -0.003 | gefitinib 0.424

RBBP5 isoform 2 (UniProt Q15291)
inactive: Tubastatin A -0.01 | defactinib -0.191 | [5] 0.025 | encorafenib -0.131 | [6] -0.24 | alisertib 0.172 | [1] 0.037 | gefitinib -0.342 | lapatinib -0.203 | pictilisib -0.084 | crizotinib -0.091 | duvelisib -0.069 | tozasertib -0.011 | doramapimod -0.013 | bafetinib 0.073

RBM12B (UniProt Q8IXT5)
inactive: Tubastatin A -0.089 | alisertib -0.055 | gefitinib 0.008 | pictilisib -0.107 | bafetinib 0.052

RBM20 (UniProt Q5T481)
inactive: Tubastatin A 0.086 | [4] 0.005 | defactinib -0.012 | [5] -0.212 | alisertib -0.02 | gefitinib 0.185 | pictilisib 0.03 | duvelisib -0.145 | bafetinib -0.046

RBX1 (UniProt P62877)
inactive: Tubastatin A 0.09 | [4] 0.037 | defactinib 0.025 | [5] 0.035 | encorafenib -0.025 | [6] -0.026 | alisertib 0.079 | [1] -0.187 | gefitinib -0.045 | lapatinib 0.468 | pictilisib 0.083 | crizotinib -0.075 | duvelisib -0.143 | tozasertib -0.041 | doramapimod 0.499 | bafetinib 0.372

RCOR2 (UniProt Q8IZ40)
inactive: Tubastatin A -0.146
